Experimental data from patent US20100183563A1, “DENTINOGENESIS PROMOTER AND DENTINOGENIC PULP-CAPPING MATERIAL” (ORGAN TECHNOLOGIES, INC., priority 2007, published 2010).
For at least one compound, name, drawing or mass did not settle the structure.

Legend:
[1] = tested on: osteocalcin (OCN) gene expression in dental pulp stem cells (DPSCs); assay: Gene expression of OCN (marker of calcification) in DPSCs by RT-PCR; assay type: cell-based, human; settings: day 14, Example 2, FIG. 6
Description: Specifically, the DPSCs prepared above (1) were cultured under a 5% CO2 gas phase at 37° C. in α-MEM culture medium including 10% fetal bovine serum (FBS) containing SVS at a concentration of 1 μM, L-ascorbic acid (0.1 mM), L-glutamine (2 mM), penicillin (100 μg/ml), and streptomycin (100 μg/ml). Total RNA was collected from cells obtained on day 3, day 7, and day 10 from the beginning of cultivation, and gene expression of dentin sialophosphoprotein (DSPP), i.e., an odontoblast-specific marker (Ritchie H H et al. J. Biol. Chem., 269:3698-702, 1994; Butler W T et al. Matrix., 12:343-51, 1992), and gene expression of osteocalcin (OCN), i.e., a marker of calcification (Bronckers A L et al. Connect Tissue Res., 22:65-70, 1989) were evaluated using qualitative RT-PCR (Narayanan K et al., J. Biol. Chem., 281(28):19064-71, 2006).
Dental pulp stem cells (DPSCs) were cultured in a manner similar to Example 1, section (3), using simvastatin (1 μM), fluvastatin (1 μM), mevastatin (1 μM), lovastatin (1 μM), and plavastatin (200 μM) respectively as HGM-CoA reductase inhibitors. Gene expression of OCN, i.e., a marker of calcification was evaluated on day 14, using qualitative RT-PCR.

[2] = tested on: dental pulp stem cells (DPSCs); assay: Proliferation of dental pulp stem cells, cell number by the MTS method; assay type: cell-based, human; settings: day 5
Description: Dental pulp stem cells (DPSCs) were isolated in accordance with a method of Gronthos et al. (Proc. Natl. Acad. Sci. USA, 97: 13625-30, 2000) from a human extracted tooth that was submitted with informed consent under the permission of Okayama University Dental School Ethics Committee.
Specifically, pulp obtained from an extracted human tooth was enzyme-treated for 30 minutes at 37° C. with 3 mg/ml type 1 collagenase (Worthington Biochemicals Corp.) and 4 mg/ml dispase (Roche Diagnostic/Boehringer Mannheim Corp.), and then cultured using α-MEM culture medium containing 10% fetal bovine serum (FBS), L-ascorbic acid (0.1 mM), L-glutamine (2 mM), penicillin (100 μg/ml), and streptomycin (100 μg/ml).
Specifically, the DPSCs prepared above (1) were cultured under 5% CO2 at 37° C. in α-MEM culture medium including 10% fetal bovine serum (FBS) containing SVS at a concentration of 1 μM, L-ascorbic acid (0.1 mM), L-glutamine (2 mM), penicillin (100 μg/ml), and streptomycin (100 μg/ml). The culture medium was exchanged twice a week, and the number of cells on […] was indirectly evaluated using the MTS method (Barltrop, J. A. et al. 5-(3-carboxymethoxyphenyl)-2-(4,5-dimenthylthiazoly)-3-(4-sulfophenyl)tetrazolium, inner salt (MTS) and related analogs of 3-(4,5-dimethylthiazolyl)-2,5-diphenyl-tetrazolium bromide (MTT) reducing to purple water-soluble formazans as cell-viability indicators. Bioorg. & Med. Chem. Lett. 1, 611, 1991).
On day 0, day 3, and day 5 from the beginning of cultivation, the cell number of DPSCs was measured using the MTS method.
On day 5 from the beginning of cultivation, the cell number of DPSCs was measured using the MTS method.
Specifically, in Example 1, section (2), dental pulp stem cells (DPSCs) were cultured in the presence of each of the following: (a) simvastatin (1 μM) (simvastatin added group); (b) simvastatin (1 μM) and mevalonate (1 mM) (mevalonate added group); and (c) simvastatin (1 μM), mevalonate (1 mM) and Fasudil (10 μM) (Fasudil combined use group). On day 0, day 3, and day 5 from the beginning of cultivation, the cell number of DPSCs was measured using the MTS method.

SMILES | gene expression of OCN compared with the control and the comparison (BMP-2) ([1]; 1 μM) | effect on proliferation of DPSCs compared with the control ([2]; 1 μM, Example 2, FIG. 5) | effect on cellular proliferation of DPSCs compared with the control ([2]; Example 4, FIG. 9, statin = simvastatin 1 μM) | effect on cell proliferation of DPSCs, simvastatin added group ([2]; simvastatin 1 μM, Example 3 (2), FIG. 8) | gene expression of OCN compared with the control and the comparison (BMP-2) ([1]; 200 μM) | effect on proliferation of DPSCs ([2]; 200 μM, Example 2, FIG. 5)
CCC(C)(C)C(=O)O[C@H]1C[C@@H](C)C=C2C=C[C@H](C)[C@H](CC[C@@H]3C[C@@H](O)CC(=O)O3)[C@H]21 [simvastatin] | increase in gene expression of OCN | inhibited proliferation of DPSCs with a significant difference | inhibition of cellular proliferation of DPSCs was observed | greater inhibition of cell proliferation of DPSCs than the comparison | – | –
CC[C@H](C)C(=O)O[C@H]1C[C@H](O)C=C2C=C[C@H](C)[C@H](CC[C@@H](O)C[C@@H](O)CC(=O)O)[C@H]21 [pravastatin] | – | – | – | – | increase in gene expression of OCN | inhibited proliferation of DPSCs
